Source: US12173001B1, “Pyrido[3,4-e][1,2,4]triazolo[4,3-c]pyrimidines as CK2 inhibitors” (King Faisal University, priority 2024, dated 2024)

Key:
Assay type in all cases: cell-based
[1] = tested on: HL60 (leukemia); assay: In vitro cytotoxic activity (MTT) assay, HL60; details: Homo sapiens, HL-60, cells exposed for 96 hours, read-out: Cytotoxicity activity IC50 (50% inhibition of cell proliferation)
Description: (§1) Compounds 1-16 were screened for their in vitro cytotoxic activity utilizing a 3-(4,5-dimethyl-thiazol-2-yl)-2,5-diphenyltetrazolium bromide (MTT) assay against selected cancer human cell lines consisting of PC3 (prostate), HCT116 (colon), A375 (melanoma), H1299 (lung), MIAPaCa-2 (pancreas), HL60 (leukemia), MCF7 (breast), MDA-MB-231 (breast) (T. Mosmann, J. Immunol. Meth., 1983, 65, 55-63). The cells were cultured at 37° C. in RMPI1640 medium supplemented with 10% fetal bovine serum, 50 IU/mL penicillin, and […] streptomycin in a 5% CO2 incubator. All cells were sub-cultured 3 times/week by trypsinization. Viable cells were seeded and allowed to adhere for 12 hours before a test drug was added in 96-well plates at an initial density of 1.0×10^5 cells/mL. Tumor cell lines were separately exposed to various concentrations of the tested compounds followed by incubation at a temperature of 37° C. during 96 hours inside a medium of fresh RMPI 1640. Cells were subsequently incubated at 37° C. using MTT at 0.5 mg/mL during 4 hours. After removal of supernatant, formazan crystals were dissolved in isopropanol and the optical density was measured at 570 nm. CX-4945 was used as a positive control.

[2] = tested on: A375 (melanoma); assay: In vitro cytotoxic activity (MTT) assay, A375; details: Homo sapiens, A-375, cells exposed for 96 hours, read-out: Cytotoxicity activity IC50 (50% inhibition of cell proliferation)
Description: as §1

[3] = tested on: MCF7 (breast); assay: In vitro cytotoxic activity (MTT) assay, MCF7; details: Homo sapiens, cells exposed for 96 hours, read-out: Cytotoxicity activity IC50 (50% inhibition of cell proliferation)
Description: as §1

[4] = tested on: H1299 (lung); assay: In vitro cytotoxic activity (MTT) assay, H1299; details: Homo sapiens, NCI-H1299, cells exposed for 96 hours, read-out: Cytotoxicity activity IC50 (50% inhibition of cell proliferation)
Description: as §1

[5] = tested on: MDA-MB-231 (breast); assay: In vitro cytotoxic activity (MTT) assay, MDA-MB-231; details: Homo sapiens, cells exposed for 96 hours, read-out: Cytotoxicity activity IC50 (50% inhibition of cell proliferation)
Description: as §1

[6] = tested on: MIAPaCa-2 (pancreas); assay: In vitro cytotoxic activity (MTT) assay, MIAPaCa-2; details: Homo sapiens, MIA PaCa-2, cells exposed for 96 hours, read-out: Cytotoxicity activity IC50 (50% inhibition of cell proliferation)
Description: as §1

[7] = tested on: PC3 (prostate); assay: In vitro cytotoxic activity (MTT) assay, PC3; details: Homo sapiens, Prostate cell, cells exposed for 96 hours, read-out: Cytotoxicity activity IC50 (50% inhibition of cell proliferation)
Description: as §1

[8] = tested on: HCT116 (colon); assay: In vitro cytotoxic activity (MTT) assay, HCT116; details: Homo sapiens, HCT-116, cells exposed for 96 hours, read-out: Cytotoxicity activity IC50 (50% inhibition of cell proliferation)
Description: as §1

## O=C(O)c1ccc2c(c1)nc(Nc1cccc(Cl)c1)c1ccncc12 [CX-4945, reference compound]
[1]
  IC50: 3.7 µM
[2]
  IC50: 4.1 µM
[3]
  IC50: 9.1 µM
[4]
  IC50: 2300 nM
[5]
  IC50: 6.2 µM
[6]
  IC50: 1000 nM
[7]
  IC50: 2000 nM
[8]
  IC50: 2300 nM
